Experimental data: the supplement of paper PMC10032668
Some of the results follow. Only hits are listed; about a third recur on repeated control peptides.

Amino acid sequences for entries named in this document (tags omitted).
DDX54, Q8TDD1, UniProt Q8TDD1, whole entry: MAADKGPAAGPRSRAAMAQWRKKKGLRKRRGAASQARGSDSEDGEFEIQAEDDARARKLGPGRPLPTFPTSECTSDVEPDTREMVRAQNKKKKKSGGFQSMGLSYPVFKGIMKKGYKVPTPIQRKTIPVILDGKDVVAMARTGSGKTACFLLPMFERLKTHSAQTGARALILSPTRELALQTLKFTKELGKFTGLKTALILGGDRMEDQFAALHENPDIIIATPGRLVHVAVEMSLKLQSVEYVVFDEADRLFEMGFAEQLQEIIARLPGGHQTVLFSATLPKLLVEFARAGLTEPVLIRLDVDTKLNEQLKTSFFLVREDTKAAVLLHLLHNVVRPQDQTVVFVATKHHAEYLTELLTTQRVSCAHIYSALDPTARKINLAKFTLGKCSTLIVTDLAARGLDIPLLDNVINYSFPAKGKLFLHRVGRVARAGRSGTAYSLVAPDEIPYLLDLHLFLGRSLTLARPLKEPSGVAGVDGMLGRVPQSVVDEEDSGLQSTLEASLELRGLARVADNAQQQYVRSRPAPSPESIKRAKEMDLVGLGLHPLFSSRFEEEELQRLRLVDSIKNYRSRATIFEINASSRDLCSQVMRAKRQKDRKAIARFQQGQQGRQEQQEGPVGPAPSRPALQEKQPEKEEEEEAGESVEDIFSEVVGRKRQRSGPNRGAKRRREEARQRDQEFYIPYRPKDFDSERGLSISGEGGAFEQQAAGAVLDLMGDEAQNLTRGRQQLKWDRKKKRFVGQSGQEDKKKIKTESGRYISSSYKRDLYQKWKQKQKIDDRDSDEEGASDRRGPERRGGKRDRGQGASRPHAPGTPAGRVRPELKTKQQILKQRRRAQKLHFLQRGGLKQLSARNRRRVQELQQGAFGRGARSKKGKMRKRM
PRMT5, O14744, UniProt O14744, whole entry: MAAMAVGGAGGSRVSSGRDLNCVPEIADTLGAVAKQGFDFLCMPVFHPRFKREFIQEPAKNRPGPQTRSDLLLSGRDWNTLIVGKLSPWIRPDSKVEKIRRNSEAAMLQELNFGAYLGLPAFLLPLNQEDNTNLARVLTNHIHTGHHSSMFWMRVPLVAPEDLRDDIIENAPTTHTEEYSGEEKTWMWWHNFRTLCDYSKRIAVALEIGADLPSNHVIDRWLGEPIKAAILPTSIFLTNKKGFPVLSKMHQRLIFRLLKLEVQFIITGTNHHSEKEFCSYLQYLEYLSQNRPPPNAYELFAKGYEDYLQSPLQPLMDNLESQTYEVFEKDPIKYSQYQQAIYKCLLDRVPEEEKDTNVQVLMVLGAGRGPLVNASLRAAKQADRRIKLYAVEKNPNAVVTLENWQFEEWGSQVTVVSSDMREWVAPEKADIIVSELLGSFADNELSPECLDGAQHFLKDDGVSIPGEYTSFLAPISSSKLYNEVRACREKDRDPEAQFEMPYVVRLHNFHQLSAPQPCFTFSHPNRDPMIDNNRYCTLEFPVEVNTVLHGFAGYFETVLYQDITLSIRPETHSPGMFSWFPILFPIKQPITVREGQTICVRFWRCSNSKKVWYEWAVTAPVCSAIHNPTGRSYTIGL
TAF4, O00268, UniProt O00268, whole entry: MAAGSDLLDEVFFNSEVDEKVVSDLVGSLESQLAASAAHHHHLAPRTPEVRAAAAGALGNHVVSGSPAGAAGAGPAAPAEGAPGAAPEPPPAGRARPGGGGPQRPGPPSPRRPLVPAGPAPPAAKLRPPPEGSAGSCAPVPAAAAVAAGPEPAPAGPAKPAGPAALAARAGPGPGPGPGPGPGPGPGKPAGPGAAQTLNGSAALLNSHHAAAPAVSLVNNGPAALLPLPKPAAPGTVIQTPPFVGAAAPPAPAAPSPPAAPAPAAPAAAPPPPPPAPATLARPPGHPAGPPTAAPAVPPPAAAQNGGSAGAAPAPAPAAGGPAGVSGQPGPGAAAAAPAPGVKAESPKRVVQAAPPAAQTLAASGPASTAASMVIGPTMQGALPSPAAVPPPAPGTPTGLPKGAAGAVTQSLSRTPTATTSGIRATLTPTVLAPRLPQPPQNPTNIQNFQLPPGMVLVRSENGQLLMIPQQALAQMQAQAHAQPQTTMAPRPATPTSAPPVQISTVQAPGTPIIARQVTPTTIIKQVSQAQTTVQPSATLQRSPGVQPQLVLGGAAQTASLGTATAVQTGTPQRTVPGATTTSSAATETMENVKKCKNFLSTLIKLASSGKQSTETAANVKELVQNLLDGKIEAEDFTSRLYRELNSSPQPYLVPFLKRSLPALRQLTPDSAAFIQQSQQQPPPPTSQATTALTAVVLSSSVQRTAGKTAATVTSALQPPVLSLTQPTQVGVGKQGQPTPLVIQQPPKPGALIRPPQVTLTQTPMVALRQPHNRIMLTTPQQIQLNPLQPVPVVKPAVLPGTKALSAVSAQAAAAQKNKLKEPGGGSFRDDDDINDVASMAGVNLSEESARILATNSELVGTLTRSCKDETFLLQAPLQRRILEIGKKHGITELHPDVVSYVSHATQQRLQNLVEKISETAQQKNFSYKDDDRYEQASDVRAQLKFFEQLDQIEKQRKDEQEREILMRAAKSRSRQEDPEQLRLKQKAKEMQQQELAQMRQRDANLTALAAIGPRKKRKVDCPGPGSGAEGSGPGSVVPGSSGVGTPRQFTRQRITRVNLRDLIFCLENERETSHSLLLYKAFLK
DNM1L, O00429, UniProt O00429, whole entry: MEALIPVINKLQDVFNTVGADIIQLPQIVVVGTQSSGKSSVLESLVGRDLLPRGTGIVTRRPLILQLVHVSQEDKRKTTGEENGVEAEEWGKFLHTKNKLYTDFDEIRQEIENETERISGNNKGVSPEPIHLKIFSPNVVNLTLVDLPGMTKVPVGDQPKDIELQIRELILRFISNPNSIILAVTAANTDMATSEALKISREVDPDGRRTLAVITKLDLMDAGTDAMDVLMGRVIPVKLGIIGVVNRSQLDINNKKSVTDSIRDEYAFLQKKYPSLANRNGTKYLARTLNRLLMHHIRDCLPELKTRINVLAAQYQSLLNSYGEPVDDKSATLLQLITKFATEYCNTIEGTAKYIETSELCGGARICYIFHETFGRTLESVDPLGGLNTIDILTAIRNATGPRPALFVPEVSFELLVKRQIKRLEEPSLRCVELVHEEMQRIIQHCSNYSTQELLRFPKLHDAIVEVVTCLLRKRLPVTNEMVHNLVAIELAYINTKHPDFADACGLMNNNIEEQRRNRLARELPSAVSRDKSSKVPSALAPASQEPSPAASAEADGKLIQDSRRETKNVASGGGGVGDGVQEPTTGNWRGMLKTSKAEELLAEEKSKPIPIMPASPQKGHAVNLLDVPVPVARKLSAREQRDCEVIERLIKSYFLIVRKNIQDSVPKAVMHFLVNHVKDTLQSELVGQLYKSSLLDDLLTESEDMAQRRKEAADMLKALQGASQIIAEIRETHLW
SKP1, P63208, UniProt P63208, whole entry: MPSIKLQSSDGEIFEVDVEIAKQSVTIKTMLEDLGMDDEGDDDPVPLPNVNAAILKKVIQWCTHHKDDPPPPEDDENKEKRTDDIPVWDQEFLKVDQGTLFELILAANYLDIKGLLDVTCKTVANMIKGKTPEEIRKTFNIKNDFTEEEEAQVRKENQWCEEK

Tests used:
Assay in all cases: PRISMA enrichment of interactor (LFQ) in peptide spot vs all other peptide spots (log2 fold change); higher = stronger / more specific binding of the interactor to the peptide
[1] = molecular target: CLNS1A, P54105
Method: (§1)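 PRISMA: 15-aa overlapping tiles (offset 8 aa) of 60 microproteins, plus SOS1/GLUT1 control peptides, were spot-synthesized on cellulose membranes in triplicate. Membranes were incubated with benzonase-treated HEK293T lysate, and bound proteins were identified by LC-MS/MS with LFQ. Enrichment is the log2 fold change of each protein in one spot versus all other spots. Only interactors passing the significance cutoff are listed.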

[2] = molecular target: GABARAPL2, P60520
Method: as §1

[3] = molecular target: LCLAT1, Q6UWP7
Method: as §1

[4] = molecular target: SF1, Q15637
Method: as §1

[5] = molecular target: SHROOM3, Q8TF72
Method: as §1

[6] = molecular target: STAG2, Q8N3U4
Method: as §1

[7] = molecular target: STT3A, P46977
Method: as §1

[8] = molecular target: CIAO1, O76071
Method: as §1

[9] = molecular target: DDX54, Q8TDD1
Method: as §1

[10] = molecular target: DMAC2, Q9NW81
Method: as §1

[11] = molecular target: MLIP, Q5VWP3
Method: as §1

[12] = molecular target: NCBP3, Q53F19
Method: as §1

[13] = molecular target: NFS1, Q9Y697
Method: as §1

[14] = molecular target: ODF2, Q5BJF6
Method: as §1

[15] = molecular target: PRMT5, O14744
Method: as §1

[16] = molecular target: SMC3, Q9UQE7
Method: as §1

[17] = molecular target: USO1, O60763
Method: as §1

[18] = molecular target: XPOT, O43592
Method: as §1

[19] = molecular target: ZC3HC1, Q86WB0
Method: as §1

[20] = molecular target: CHERP, Q8IWX8
Method: as §1

[21] = molecular target: COQ5, Q5HYK3
Method: as §1

[22] = molecular target: CXorf56, Q9H5V9
Method: as §1

[23] = molecular target: DDX21, Q9NR30
Method: as §1

[24] = molecular target: FANCD2, Q9BXW9
Method: as §1

[25] = molecular target: FUBP1, Q96AE4
Method: as §1

[26] = molecular target: GLE1, Q53GS7
Method: as §1

[27] = molecular target: LARP1, Q6PKG0
Method: as §1

[28] = molecular target: MGA, Q8IWI9
Method: as §1

[29] = molecular target: MPP1, Q00013
Method: as §1

[30] = molecular target: MRPL20, Q9BYC9
Method: as §1

[31] = molecular target: NOL6, Q9H6R4
Method: as §1

[32] = molecular target: NOP58, Q9Y2X3
Method: as §1

[33] = molecular target: PDIA4, P13667
Method: as §1

[34] = molecular target: PINX1, Q96BK5
Method: as §1

[35] = molecular target: SART1, O43290
Method: as §1

[36] = molecular target: SF3B5, Q9BWJ5
Method: as §1

[37] = molecular target: SP2, Q02086
Method: as §1

[38] = molecular target: TAF4, O00268
Method: as §1

[39] = molecular target: TARBP1, Q13395
Method: as §1

[40] = molecular target: UTP11, Q9Y3A2
Method: as §1

[41] = molecular target: XRCC5, P13010
Method: as §1

[42] = molecular target: YLPM1, P49750
Method: as §1

[43] = molecular target: YWHAG, P61981
Method: as §1

[44] = molecular target: CLASP2, O75122
Method: as §1

[45] = molecular target: DHX15, O43143
Method: as §1

[46] = molecular target: DHX37, Q8IY37
Method: as §1

[47] = molecular target: DNM1L, O00429
Method: as §1

[48] = molecular target: FADS2, O95864
Method: as §1

[49] = molecular target: MRPS9, P82933
Method: as §1

[50] = molecular target: MYO1D, O94832
Method: as §1

[51] = molecular target: SF3B2, Q13435
Method: as §1

[52] = molecular target: SKP1, P63208
Method: as §1

[53] = molecular target: SRSF7, Q16629
Method: as §1

[54] = molecular target: VCL, P18206
Method: as §1

TQLGGQEGAGGWLVV [TUG1]
PRISMA enrichment of interactor (log2) [1]: 4.4 | PRISMA enrichment of interactor (log2) [2]: 6.98 | PRISMA enrichment of interactor (log2) [3]: 4.52 | PRISMA enrichment of interactor (log2) [4]: 5.42 | PRISMA enrichment of interactor (log2) [5]: 9.76 | PRISMA enrichment of interactor (log2) [6]: 6.75 | PRISMA enrichment of interactor (log2) [7]: 5.05

CVLMRYDSLKVCGSS [RP11-12K22.1]
PRISMA enrichment of interactor (log2) [8]: 4.41 | PRISMA enrichment of interactor (log2) [9]: 6.29 | PRISMA enrichment of interactor (log2) [10]: 4.98 | PRISMA enrichment of interactor (log2) [11]: 5.11 | PRISMA enrichment of interactor (log2) [12]: 5.2 | PRISMA enrichment of interactor (log2) [13]: 6.91 | PRISMA enrichment of interactor (log2) [14]: 9.79 | PRISMA enrichment of interactor (log2) [15]: 4.97 | PRISMA enrichment of interactor (log2) [16]: 4.7 | PRISMA enrichment of interactor (log2) [17]: 6.97 | PRISMA enrichment of interactor (log2) [18]: 3.99 | PRISMA enrichment of interactor (log2) [19]: 5.36

GPSRPVLGIDYSKKE [LINC01560]
PRISMA enrichment of interactor (log2) [20]: 4.55 | PRISMA enrichment of interactor (log2) [21]: 3.92 | PRISMA enrichment of interactor (log2) [22]: 4.73 | PRISMA enrichment of interactor (log2) [23]: 4.4 | PRISMA enrichment of interactor (log2) [24]: 4.27 | PRISMA enrichment of interactor (log2) [25]: 5.09 | PRISMA enrichment of interactor (log2) [26]: 5.37 | PRISMA enrichment of interactor (log2) [27]: 6.54 | PRISMA enrichment of interactor (log2) [28]: 7.43 | PRISMA enrichment of interactor (log2) [29]: 6.26 | PRISMA enrichment of interactor (log2) [30]: 4.79 | PRISMA enrichment of interactor (log2) [31]: 5.32 | PRISMA enrichment of interactor (log2) [32]: 4.87 | PRISMA enrichment of interactor (log2) [33]: 4.98 | PRISMA enrichment of interactor (log2) [34]: 6.43 | PRISMA enrichment of interactor (log2) [35]: 4.51 | PRISMA enrichment of interactor (log2) [36]: 4.84 | PRISMA enrichment of interactor (log2) [37]: 5.59 | PRISMA enrichment of interactor (log2) [38]: 5.71 | PRISMA enrichment of interactor (log2) [39]: 6.06 | PRISMA enrichment of interactor (log2) [40]: 5.78 | PRISMA enrichment of interactor (log2) [41]: 4.54 | PRISMA enrichment of interactor (log2) [42]: 4.91 | PRISMA enrichment of interactor (log2) [43]: 6.04

ECSLGRRASTCSPGP [SNHG8]
PRISMA enrichment of interactor (log2) [44]: 4.76 | PRISMA enrichment of interactor (log2) [45]: 6.45 | PRISMA enrichment of interactor (log2) [46]: 4.63 | PRISMA enrichment of interactor (log2) [47]: 6.59 | PRISMA enrichment of interactor (log2) [48]: 5.1 | PRISMA enrichment of interactor (log2) [49]: 4.74 | PRISMA enrichment of interactor (log2) [50]: 4.68 | PRISMA enrichment of interactor (log2) [51]: 5.73 | PRISMA enrichment of interactor (log2) [52]: 6.4 | PRISMA enrichment of interactor (log2) [53]: 11 | PRISMA enrichment of interactor (log2) [54]: 5.05
